Patent publication US10092585B2, “Compositions based on saffron for the prevention and/or treatment of corneal dystrophies” (Hortus Novus SRL, priority 2014, dated 2018)
At least one compound was matched to its structure with a doubt left.

Tested on: epithelial basement membrane dystrophy
Experiment: Treatment of patients suffering from epithelial basement membrane dystrophy with recurrent corneal erosions
Format: in vivo, human

**Q.** With C[C@H]1c2cccc(O)c2C(=O)C2=C(O)[C@]3(O)C(=O)C(C(N)=O)=C(O)[C@@H](N(C)C)[C@@H]3[C@@H](O)[C@@H]21 [doxycycline] as the compound, how does the “effect of discontinuation of treatment” value (after discontinuation of doxycycline) read?
**A.** Its value is “return of the symptoms within a few days”.

**Q.** And the symptoms under treatment (steroids and doxycycline 100 mg/day for 10 months, with tear substitutes)?
**A.** The symptoms under treatment was “symptoms subsided”.
